Test results published in the supplement of paper PMC5949888.
Most values lie at the floor of the assay. Slopes are relative: functional sequences can read slightly below zero.

These substances were tested on Saccharomyces cerevisiae PS128 hsf1 delta, HSF1(1-493) fusion (assay: growth estimate (transactivation domain function in HSF1 fusion, heat-shock survival) (a.u. (slope of normalised read count over time)); higher = stronger growth at 37°C, i.e. more transactivation activity). Settings: library: random library.

Q: With SPSALVRISYRGGPMTHCPP as the substance, how does the growth estimate read?
A: < -0.25

Q: For WDRVAQADEVGHGLSSKLR, which growth estimate is on record?
A: < -0.25

Q: Which growth estimate does the source give for QQMIHQTEGVTGSGLRARNG here?
A: < -0.25

Q: How did the growth estimate turn out when SLPMAGNRRDIRANRSGRWS was run?
A: -0.229

Q: With SGGVS as the substance, how does the growth estimate read?
A: < -0.25

Q: With LCISGVPHLQTR as the substance, how does the growth estimate read?
A: < -0.25

Q: For RACSMLGVHRGDF, which growth estimate is on record?
A: < -0.25

Q: With RQAALIAFQLGTTILCTGRG as the substance, how does the growth estimate read?
A: < -0.25

Q: Which growth estimate does the source give for AKGDAEYCGYSVWGHFSGVL here?
A: -0.0794

Q: GPYLSTWKLHPRLCLASL was tested. Which growth estimate did it give?
A: < -0.25

Q: TESGGFTSPTNAFKVLGRPR was tested. Which growth estimate did it give?
A: < -0.25

Q: Which growth estimate does the source give for GTSFTRMIFS here?
A: < -0.25

Q: With KNTPRTTPVLLIRRPKSPPI as the substance, how does the growth estimate read?
A: < -0.25

Q: With SGLPRVAALLKITGAASVSI as the substance, how does the growth estimate read?
A: < -0.25

Q: Which growth estimate does the source give for RQLSQWGL here?
A: < -0.25

Q: DVAL was tested. Which growth estimate did it give?
A: < -0.25

Q: With DLGCRFVLRRPRIRKPLR as the substance, how does the growth estimate read?
A: < -0.25

Q: Which growth estimate does the source give for VHRIVPYG here?
A: < -0.25

Q: With VTSVYI as the substance, how does the growth estimate read?
A: < -0.25

Q: Which growth estimate does the source give for LCPLKGYH here?
A: -0.243

Q: Which growth estimate does the source give for DAYM here?
A: < -0.25

Q: How did the growth estimate turn out when PKATGAIAKSPVAGVEGPRT was run?
A: < -0.25

Q: PYNTSSRSQLVARSGKGMPF was tested. Which growth estimate did it give?
A: < -0.25

Q: With PGVIGSAQ as the substance, how does the growth estimate read?
A: < -0.25

Q: How did the growth estimate turn out when REQGGTNTCFRLEYGARA was run?
A: < -0.25

Q: Which growth estimate does the source give for TGLDPGFGLRGWERGLAL here?
A: < -0.25

Q: Which growth estimate does the source give for GRYFGQSICPRS here?
A: < -0.25

Q: RRLRGCGRGLGLSGSVLAQR was tested. Which growth estimate did it give?
A: < -0.25

Q: With LGVCSSERRKTGAQRLLPAP as the substance, how does the growth estimate read?
A: < -0.25

Q: How did the growth estimate turn out when KCGSRDTRQHLAALAT was run?
A: < -0.25

Q: Which growth estimate does the source give for PEELDTCGAVGSDYKVFGGQ here?
A: < -0.25

Q: With LNAAKPDS as the substance, how does the growth estimate read?
A: < -0.25

Q: For FLKPRASDIRHCNARPAILR, which growth estimate is on record?
A: < -0.25

Q: RISAALRSCGGCVPLKSRFA was tested. Which growth estimate did it give?
A: < -0.25

Q: For CVLKARLRVKMERTS, which growth estimate is on record?
A: < -0.25

Q: Which growth estimate does the source give for EVRRCSQARMHQATGREPAI here?
A: < -0.25

Q: Which growth estimate does the source give for WNISVECLSIARMVRHARTA here?
A: < -0.25

Q: For RRLRTSRQS, which growth estimate is on record?
A: < -0.25

Q: Which growth estimate does the source give for IIRI here?
A: < -0.25

Q: With QKT as the substance, how does the growth estimate read?
A: < -0.25

Q: GDDSAESRG was tested. Which growth estimate did it give?
A: < -0.25

Q: How did the growth estimate turn out when VPRGSHSTNQGGPKKAGGNG was run?
A: < -0.25

Q: LGDSDFCQGCHYWSGGSSRQ was tested. Which growth estimate did it give?
A: < -0.25

Q: For RNWQAYRTLTQRA, which growth estimate is on record?
A: < -0.25

Q: With STNRISQSNTLKAGTPASRA as the substance, how does the growth estimate read?
A: < -0.25

Q: Which growth estimate does the source give for ASGTMHRSLSQRLMFLHLRG here?
A: < -0.25

Q: How did the growth estimate turn out when WFVRDSGLWKRVDARAEPRA was run?
A: < -0.25

Q: AKSQLASRQTSLAAG was tested. Which growth estimate did it give?
A: < -0.25

Q: For AGLFSSNTRVLDVVCGYGGC, which growth estimate is on record?
A: < -0.25

Q: With WVYWVRKFGHSRAYAYLQFW as the substance, how does the growth estimate read?
A: < -0.25

Q: For IRVPLSIVALVHLRTLFLLN, which growth estimate is on record?
A: < -0.25

Q: RKCFYPLTCRVGGFPEGPLD was tested. Which growth estimate did it give?
A: < -0.25

Q: For LIQNEGRAASV, which growth estimate is on record?
A: < -0.25

Q: How did the growth estimate turn out when MGITEMGNPGFARNF was run?
A: < -0.25

Q: Which growth estimate does the source give for WVYVGQSAVPVKWTHALGGE here?
A: < -0.25

Q: For FTTGLAYVT, which growth estimate is on record?
A: < -0.25

Q: With GIQCAFQVASGYSIEHPGL as the substance, how does the growth estimate read?
A: < -0.25

Q: For STVRTGSKPVSPSTLRKPHI, which growth estimate is on record?
A: < -0.25

Q: Which growth estimate does the source give for TVVSRNPGTTL here?
A: < -0.25

Q: How did the growth estimate turn out when SEERGRALQIAHGAIYTHKT was run?
A: < -0.25

Q: With NSVSLVFALGGR as the substance, how does the growth estimate read?
A: < -0.25

Q: PMKVTAGPRCLGNGMLISIV was tested. Which growth estimate did it give?
A: < -0.25

Q: With YQPATGLLADVPDVESVRPL as the substance, how does the growth estimate read?
A: < -0.25

Q: Which growth estimate does the source give for ITVTTANWCTTSFPASGSVH here?
A: < -0.25

Q: How did the growth estimate turn out when QRSKFNEIPEKNIGMKLRGD was run?
A: < -0.25

Q: RFY was tested. Which growth estimate did it give?
A: < -0.25

Q: For CSIARAC, which growth estimate is on record?
A: < -0.25

Q: With SGKLVCVPIWRLVRRLGGIK as the substance, how does the growth estimate read?
A: < -0.25

Q: With ILGFVAWPAHAPAWLGIVSG as the substance, how does the growth estimate read?
A: -0.246

Q: For GGAHRILCCVRWRTGSGPRV, which growth estimate is on record?
A: < -0.25

Q: With CANGRQR as the substance, how does the growth estimate read?
A: < -0.25

Q: With VWCAGSKIASRRAIGSMGAK as the substance, how does the growth estimate read?
A: < -0.25

Q: For IARMHVAVFGASHTEK, which growth estimate is on record?
A: < -0.25

Q: How did the growth estimate turn out when AGHHPWGATTRCIVQSLRHG was run?
A: < -0.25

Q: Which growth estimate does the source give for KSIAKPTFIKAMGCLVPSRE here?
A: < -0.25

Q: HLYRRLYDPPC was tested. Which growth estimate did it give?
A: < -0.25

Q: Which growth estimate does the source give for SLSLDGAEGCMRC here?
A: < -0.25

Q: With PACG as the substance, how does the growth estimate read?
A: < -0.25

Q: With SVLPALTNRRSERGRLQS as the substance, how does the growth estimate read?
A: -0.245

Q: How did the growth estimate turn out when FVGPRLNSPSGTGAH was run?
A: < -0.25

Q: Which growth estimate does the source give for RASRPLLCDTFGQANTSRPE here?
A: < -0.25

Q: How did the growth estimate turn out when GDAWGLGHEPGSIWDPRS was run?
A: -0.195

Q: How did the growth estimate turn out when YIAEGNKVPVHKPGTELQIL was run?
A: < -0.25

Q: For HRNHQE, which growth estimate is on record?
A: < -0.25

Q: Which growth estimate does the source give for PKWQVLRIFPRHDALFAHRA here?
A: -0.246

Q: How did the growth estimate turn out when WDDANNTCHVSRTRVHFNSA was run?
A: < -0.25

Q: How did the growth estimate turn out when YTLAGVWPNSFAK was run?
A: < -0.25

Q: How did the growth estimate turn out when FRCGCLTFDHRAREVPRESS was run?
A: < -0.25

Q: How did the growth estimate turn out when VVYRL was run?
A: < -0.25

Q: Which growth estimate does the source give for SKGGVSGHCGSIGVEQPSSA here?
A: < -0.25

Q: For TCRQLQSLLIGYGTSLAIRG, which growth estimate is on record?
A: < -0.25

Q: Which growth estimate does the source give for TRKASGRSNLW here?
A: < -0.25

Q: With SGHGKGLFTGAHRFAQCRGH as the substance, how does the growth estimate read?
A: -0.106

Q: Which growth estimate does the source give for RRSMFSVRVLMNRPPHP here?
A: < -0.25

Q: With WPALMAC as the substance, how does the growth estimate read?
A: < -0.25

Q: Which growth estimate does the source give for RQGPRSTAL here?
A: < -0.25

Q: How did the growth estimate turn out when DTSHAATLAFYVMRNRPHTA was run?
A: < -0.25

Q: How did the growth estimate turn out when QTGESVRPCQHGTGSPLWGQ was run?
A: < -0.25

Q: ISLSGTIRGVVTTGRLVRQG was tested. Which growth estimate did it give?
A: < -0.25

Q: RKYPWRVTSTFLELFRQ was tested. Which growth estimate did it give?
A: < -0.25

Q: How did the growth estimate turn out when QLTSIACC was run?
A: < -0.25

Q: Which growth estimate does the source give for FRLLGVAS here?
A: < -0.25

Q: Which growth estimate does the source give for DDLTASPRNIECLVRHQSNL here?
A: < -0.25

Q: RVALRPQLTPPVAGRN was tested. Which growth estimate did it give?
A: < -0.25

Q: Which growth estimate does the source give for GAKMYRWLSTMDGFGSYANP here?
A: < -0.25

Q: MKASASAGLSSHTVRSNFRG was tested. Which growth estimate did it give?
A: < -0.25

Q: LFSQCYGRTKTGPVPARLG was tested. Which growth estimate did it give?
A: < -0.25

Q: How did the growth estimate turn out when TIEGVITRERMQLPTPGDSP was run?
A: < -0.25

Q: For KASRTVGEERCAQTAIWNAP, which growth estimate is on record?
A: < -0.25

Q: Which growth estimate does the source give for RPR here?
A: < -0.25

Q: Which growth estimate does the source give for HMGPNTRLERGRG here?
A: < -0.25

Q: With KRTMRTGTSEVWWVWLSATG as the substance, how does the growth estimate read?
A: < -0.25

Q: With GGIL as the substance, how does the growth estimate read?
A: < -0.25

Q: How did the growth estimate turn out when CTPYSRWPIVATNDLCSSLA was run?
A: < -0.25

Q: RLSRDDNLLVWLRSWRVPLK was tested. Which growth estimate did it give?
A: < -0.25

Q: For ERFFKRTGMWSHGHWNGSGV, which growth estimate is on record?
A: < -0.25

Q: With QEEFTG as the substance, how does the growth estimate read?
A: < -0.25

Q: With GQLGDYGLLAEYGIHE as the substance, how does the growth estimate read?
A: < -0.25

Q: For LPLSLAQSH, which growth estimate is on record?
A: < -0.25

Q: How did the growth estimate turn out when SAYIPNLTEEWPGSLV was run?
A: 7.65

Q: How did the growth estimate turn out when QAGISSYVDLGFRSVSYCET was run?
A: < -0.25

Q: With KDNG as the substance, how does the growth estimate read?
A: < -0.25

Q: For NQTSQAYRQRQLSPTCYR, which growth estimate is on record?
A: < -0.25

Q: Which growth estimate does the source give for PPG here?
A: < -0.25

Q: Which growth estimate does the source give for STLTDTATSVLVT here?
A: < -0.25

Q: Which growth estimate does the source give for LIVDIPPFTQLV here?
A: -0.187

Q: Which growth estimate does the source give for FRNRGALSAGQRCRLE here?
A: < -0.25

Q: For WVGRRQGLSTRGPSKFSPAG, which growth estimate is on record?
A: < -0.25

Q: Which growth estimate does the source give for RGTREVHWGPSGKIISG here?
A: -0.231

Q: Which growth estimate does the source give for SPPQRGHCSTPRSSLSPAHL here?
A: < -0.25

Q: KTMFGHECPGQPLLRGRHGY was tested. Which growth estimate did it give?
A: < -0.25

Q: NGWGLTSTCFRRQTILCGPW was tested. Which growth estimate did it give?
A: < -0.25

Q: WQQHRADTNIPS was tested. Which growth estimate did it give?
A: < -0.25

Q: Which growth estimate does the source give for MEGPWMSET here?
A: < -0.25

Q: VYGMVICYKIVGRSCNGSVW was tested. Which growth estimate did it give?
A: < -0.25

Q: Which growth estimate does the source give for GEAVP here?
A: < -0.25

Q: With ASSIPCGVI as the substance, how does the growth estimate read?
A: < -0.25

Q: Which growth estimate does the source give for FRVDNVATWTMSRLRLSPRK here?
A: < -0.25

Q: GWLGCLPSCGRGFCFRRLSK was tested. Which growth estimate did it give?
A: < -0.25

Q: NVTFAESSGGNHVEKHCHLP was tested. Which growth estimate did it give?
A: < -0.25

Q: Which growth estimate does the source give for AATLVLANFYSTMSR here?
A: < -0.25
